Laboratory results as given in paper PMC11123394.

Chains of the proteins cited; added tags and fusions are not shown. Lines headed by an entry give the natural chain unless they say otherwise; changes in a name come on top.
UniProt Q7Y0Y8: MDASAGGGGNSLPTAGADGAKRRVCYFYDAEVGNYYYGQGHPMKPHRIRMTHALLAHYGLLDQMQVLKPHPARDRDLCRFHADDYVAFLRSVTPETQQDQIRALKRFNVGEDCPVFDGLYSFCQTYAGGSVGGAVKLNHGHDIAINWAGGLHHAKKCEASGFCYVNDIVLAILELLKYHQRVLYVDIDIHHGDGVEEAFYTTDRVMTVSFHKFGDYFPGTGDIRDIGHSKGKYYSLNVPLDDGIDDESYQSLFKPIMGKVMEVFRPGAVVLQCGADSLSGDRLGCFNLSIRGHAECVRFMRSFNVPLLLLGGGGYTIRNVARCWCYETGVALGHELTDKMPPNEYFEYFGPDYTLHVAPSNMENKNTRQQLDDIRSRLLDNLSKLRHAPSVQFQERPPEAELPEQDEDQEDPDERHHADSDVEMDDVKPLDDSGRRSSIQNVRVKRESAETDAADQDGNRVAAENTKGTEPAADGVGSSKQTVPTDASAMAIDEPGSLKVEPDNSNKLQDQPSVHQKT
UniProt Q6F368: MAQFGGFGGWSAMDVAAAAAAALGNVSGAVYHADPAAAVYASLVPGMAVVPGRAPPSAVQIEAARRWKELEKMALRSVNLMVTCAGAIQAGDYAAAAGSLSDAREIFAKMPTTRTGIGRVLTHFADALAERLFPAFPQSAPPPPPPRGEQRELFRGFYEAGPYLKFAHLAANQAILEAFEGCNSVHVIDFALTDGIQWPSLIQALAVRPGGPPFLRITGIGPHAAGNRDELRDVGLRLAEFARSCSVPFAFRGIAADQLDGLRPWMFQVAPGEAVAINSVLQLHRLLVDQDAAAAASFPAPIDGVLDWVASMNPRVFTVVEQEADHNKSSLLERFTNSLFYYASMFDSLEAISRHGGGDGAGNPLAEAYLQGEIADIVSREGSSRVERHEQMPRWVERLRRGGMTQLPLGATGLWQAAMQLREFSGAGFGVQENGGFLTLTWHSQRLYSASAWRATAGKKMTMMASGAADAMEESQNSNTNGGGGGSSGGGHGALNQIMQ

Biological target: GST-OsHDAC1 (rice (Oryza sativa)) (UniProt Q7Y0Y8)
Assay: pull-down; glutathione resin with GST or GST-OsHDAC1 incubated with MBP-OsGRAS30-His in phosphate-buffered saline, 4 °C, 2 h; detection with anti-His; both purified

With MBP-OsGRAS30-His (from UniProt Q6F368) the binding was “binds”.

These are yes or no findings as the source states them, for the method shown. Binding can be weak; no strength is given.
